# Columns and labels:
# [1] = system: mouse immortalized TT-D6 Scx-luciferase (ScxL) cell line; transcriptional activation of Scleraxis (Scx) gene; assay: SCX-LUC in vitro assay (scleraxis promoter luciferase reporter); type: cell-based; conditions: 96 h, read-out: Scx-Luc (EC50 uM)
# [2] = system: Tenomodulin (Tnmd) gene expression in rat tail tendon fascicles; assay: Ex vivo assay, tendon fascicles, Tenomodulin mRNA (qPCR); type: cell-based, Sprague Dawley rat; conditions: 96 h, read-out: Ex vivo Tnmd (EC50 uM)
# [3] = system: collagen type 1 (Col1a2) gene expression in rat tail tendon fascicles; assay: Ex vivo assay, tendon fascicles, collagen type 1 mRNA (qPCR); type: cell-based, Sprague Dawley rat; conditions: 96 h, read-out: Ex vivo Col1a2 (EC50 uM)
compound,measurement,setting,value
C[C@@H]1CCN(C(=O)CC#N)C[C@@H]1N(C)c1ncnc2[nH]ccc12 [reference compound],EC50,[1],0.37 µM
same,EC50,[2],1.26 µM
same,EC50,[3],2.75 µM

# Source: US10766894B2, “Aza-indazole compounds for use in tendon and/or ligament injuries” (NOVARTIS AG, priority 2016, dated 2020)
